{"source": "PubChem BioAssay", "key": {"[1]": {"test": "S. cerevisiae growth inhibition in permissive medium (OD615), pilot counter-assay for S. cerevisiae lifespan shortening project, permissive growth control (AID 705;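 active = growth inhibition above 25% in both replicates, a cutoff set 3 SD above the mean; inconclusive = above 25% in only one replicate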)", "settings": "OD615, 24 h, at 10 µM, hits give high values", "how_it_was_run": "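Material: engineered DeaD yeast; compound dosing: one dose 10 µM, DMSO 0.25% final; measure: yeast growth inhibition indicated by reduced 24 h OD615; detection: OD615 turbidity read; incubation: cells pre-grown 4 h, then 24 h compound exposure, 30 °C humidified; medium: permissive synthetic complete medium with raffinose and galactose carbon sources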"}, "[2]": {"test": "MRP1 drug-resistance reversers in H69AR cells – cell-based, doxorubicin co-treatment, pilot screen (AID 601;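 active = viability loss from added drug above about 55%, and viability with drug at most 40%, in both replicates, limit read from the data, passing the limit was not always enough; inconclusive = both conditions met in only one replicate; inactive = neither replicate meets both conditions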)", "settings": "H69AR cells + 2 uM doxorubicin, CellTiter-Glo, 72 h; at 10 µM; hits give high values"}, "[3]": {"test": "viability of PTEN-null HCT116 cells – cell-based, HCT116 clonal line, CellTiter-Glo, pilot screen (AID 824;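 active = viability at or below 27.92% in each of two runs, the all-compound median minus 4 SD; inconclusive = no clear call, values can overlap the other calls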;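 note: 0% = 20 µM Hyamine control and 100% = vehicle cell control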)", "settings": "HCT116 PTEN-deleted viability, 60 h, at 10 µM, hits give low values"}, "[4]": {"test": "viability of HCT116 without oncogenic beta-catenin – human colon tumor cells, pilot screen (AID 823;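 active = cell viability at or below a set limit in both duplicate runs, the limit being the all-compound median minus 4 SD, cut at about 23% in these data, passing the limit was not always enough; inconclusive = no clear call, values can overlap the other calls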;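 note: 0% = wells killed by 20 µM Hyamine and 100% = untreated DMSO cell wells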)", "settings": "HCT116 beta-catenin knockout viability, CellTiter-Glo, 60 h; at 10 µM; hits give low values"}, "[5]": {"test": "RAM pathway blockade in budding yeast – dse1pr::URA3 reporter, 5-FOA selection, pilot screen (AID 869;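 active = inhibition over a set limit, the all-compound mean plus 3 SD, in both replicate runs; inconclusive = over that limit in just one replicate run; inactive = at or under that limit in both runs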;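 note: 0% = DMSO wells with no growth and 100% = 10 µM 1-NA-PP1 with full growth; RAM network block rescues cells from 5-FOA so hits raise OD615 growth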)", "settings": "S. cerevisiae dse1pr::URA3 5-FOA growth, OD615, 2 d; at 10 µM; hits give high values; strain carries analog-sensitive mutant Cbk1 kinase"}, "[6]": {"test": "S. cerevisiae growth inhibition in restrictive medium, OD615, pilot screen, restrictive growth control, yeast lifespan reduction project (AID 706);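 note: modified DeaD lifespan yeast strain shifted to restrictive glucose medium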", "settings": "OD615, 48 h, at 10 µM, hits give high values", "how_it_was_run": "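material = engineered S. cerevisiae DeaD strain | medium = glucose-based CSMM-D restrictive medium | times = 4 h pre-incubation, 48 h exposure at 30 °C | technique = OD615 absorbance reading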"}, "[7]": {"test": "doxorubicin toxicity protection in MRP-1 cells – H69AR cells, CellTiter-Glo, duplicate, MRP-1 activator project, pilot screen (AID 807;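 active = viability increase at or above a cutoff of the median across tested compounds plus 3 SD, cut at about 8.5% in these data, passing the limit was not always enough; inconclusive = some gains above the cutoff, reason not given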;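 note: compound pretreatment 18-22 h then 72 h combined with doxorubicin; 0% = doxorubicin alone and 100% = vehicle without doxorubicin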)", "settings": "H69AR viability with doxorubicin, CellTiter-Glo luminescence; at 10 µM; hits give high values"}}, "note": "The shares of active, inactive and inconclusive entries below differ from those in the screen. Activity calls are given as the source filed them.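 Rule for the calls, unless noted: active = growth inhibition above a set limit, 3 SD over mean compound inhibition, in both replicates (cut at about 43% in these data); inconclusive = above the limit in only one replicate; inactive = at or below the limit in both replicates.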"}
{"smiles": "CCOc1ccc2nc(N3CCC(C(=O)N4CCN(c5ncccn5)CC4)CC3)sc2c1", "values": [{"measurement": "growth inhibition", "setting": "[1]", "result": "inconclusive: 9.84%"}]}
{"smiles": "CC1CC(C)CN(Cc2nc3c(c(=O)n(C)c(=O)n3C)n2Cc2ccccc2Cl)C1", "note": "(stereo not drawn)", "values": [{"measurement": "differential viability (reversal)", "setting": "[2]", "result": "inconclusive: 37.4%"}, {"measurement": "viability", "setting": "[3]", "result": "inactive: 97.8%"}]}
{"smiles": "CC1=C(C(=O)N2CCOCC2)C(c2cc(C)cs2)NC(=O)N1", "note": "(stereo not drawn)", "values": [{"measurement": "growth inhibition", "setting": "[1]", "result": "inactive: -9.44%"}, {"measurement": "viability", "setting": "[4]", "result": "inconclusive: 102%"}]}
{"smiles": "COc1ccc(N2Cc3ccccc3C2)cc1Cl", "values": [{"measurement": "differential viability (reversal)", "setting": "[2]", "result": "inactive: -4.19%"}, {"measurement": "inhibition", "setting": "[5]", "result": "inconclusive: 3.98%"}]}
{"smiles": "COc1ccc(-c2nnc3sc(C(C)N4C(=O)c5ccccc5C4=O)nn23)cc1", "note": "(stereo not drawn)", "values": [{"measurement": "growth inhibition", "setting": "[1]", "result": "inconclusive: 19.1%"}, {"measurement": "growth inhibition", "setting": "[6]", "result": "active: 53.1%"}]}
{"smiles": "COc1cccc(N(C(C)=O)c2nc(C)cc(C)c2C#N)c1", "values": [{"measurement": "differential viability (reversal)", "setting": "[2]", "result": "inactive: 8.34%"}, {"measurement": "viability", "setting": "[3]", "result": "inconclusive: 109%"}]}
{"smiles": "COc1ccccc1N1CCN(C(CNC(=O)c2ccco2)c2cccnc2)CC1", "note": "(stereo not drawn)", "values": [{"measurement": "growth inhibition", "setting": "[1]", "result": "inconclusive: 47.3%"}, {"measurement": "growth inhibition", "setting": "[6]", "result": "inconclusive: 48.5%"}]}
{"smiles": "COc1ccc(-n2c(SCC(=O)Nc3nccs3)nc3c(c2=O)SCC3)cc1", "values": [{"measurement": "growth inhibition", "setting": "[1]", "result": "inactive: -1.01%"}, {"measurement": "inhibition", "setting": "[5]", "result": "inconclusive: 5.11%"}]}
{"smiles": "c1ccc(CN2CCN(CCCNc3ccc4nnc(-c5ccccc5)n4n3)CC2)cc1", "values": [{"measurement": "differential viability (reversal)", "setting": "[2]", "result": "active: 55.5%"}]}
{"smiles": "CCCOc1ccc(C(=O)Nc2cc(-c3nn4c(C)nnc4s3)ccc2C)cc1", "values": [{"measurement": "growth inhibition", "setting": "[1]", "result": "inconclusive: 29.9%"}, {"measurement": "growth inhibition", "setting": "[6]", "result": "inconclusive: 38.5%"}]}
{"smiles": "CCCSc1nc2c(cnn2-c2ccccc2)c(=O)[nH]1", "values": [{"measurement": "growth inhibition", "setting": "[1]", "result": "inactive: -12.6%"}, {"measurement": "viability", "setting": "[3]", "result": "inactive: 95.7%"}, {"measurement": "inhibition", "setting": "[5]", "result": "inconclusive: 3.88%"}]}
{"smiles": "CCN(CCCNC(=O)c1cn(CC)c2ccc(S(=O)(=O)N(C)C)cc2c1=O)c1cccc(C)c1", "values": [{"measurement": "differential viability (reversal)", "setting": "[2]", "result": "active: 60.4%"}]}
{"smiles": "CCCCCCn1c(SCC(=O)c2ccccc2)nc2c1c(=O)[nH]c(=O)n2C", "values": [{"measurement": "growth inhibition", "setting": "[6]", "result": "active: 42.6%"}, {"measurement": "viability", "setting": "[3]", "result": "inconclusive: 46.1%"}]}
{"smiles": "CCCc1cc(C(=O)Nc2ccc(C(C)=O)cc2)no1", "values": [{"measurement": "growth inhibition", "setting": "[6]", "result": "inactive: -1.09%"}, {"measurement": "viability", "setting": "[3]", "result": "inactive: 104%"}, {"measurement": "inhibition", "setting": "[5]", "result": "inactive: 2.74%"}]}
{"smiles": "S=C(Nc1ccccn1)c1ccccn1", "values": [{"measurement": "growth inhibition", "setting": "[6]", "result": "inconclusive: 31.5%"}, {"measurement": "viability", "setting": "[4]", "result": "active: 2.08%"}, {"measurement": "viability", "setting": "[3]", "result": "active: 0.72%"}]}
{"smiles": "Cc1cccc(N2CCN(C(=O)c3cc4c(=O)n(C)c5ccccc5c4n3C)CC2)c1C", "values": [{"measurement": "viability increase", "setting": "[7]", "result": "inconclusive: 4.17%"}]}
{"smiles": "CC(NC(=O)CN1CCN(Cc2ccc(Cl)cc2)C1=O)c1ccc2c(c1)OCCO2", "note": "(stereo not drawn)", "values": [{"measurement": "viability increase", "setting": "[7]", "result": "inconclusive: 7.6%"}]}
{"smiles": "O=C(CSC1=NCCS1)NCc1ccco1", "values": [{"measurement": "growth inhibition", "setting": "[6]", "result": "active: 47.7%"}, {"measurement": "viability", "setting": "[4]", "result": "inconclusive: 84.2%"}]}
{"smiles": "O=C1C(Cl)=C(Nc2ccccc2O)C(=O)N1c1ccccc1", "values": [{"measurement": "growth inhibition", "setting": "[6]", "result": "inactive: -9.91%"}, {"measurement": "viability", "setting": "[3]", "result": "inconclusive: 84.8%"}]}
{"smiles": "O=C(CSc1nnc(Cn2c(=O)sc3ccccc32)n1CCc1ccccc1)N1CCCC1", "values": [{"measurement": "growth inhibition", "setting": "[6]", "result": "inconclusive: 40.5%"}, {"measurement": "viability", "setting": "[4]", "result": "inactive: 97.9%"}]}
{"smiles": "CCC1(C)Cc2nc3sc(C(=O)O)c(N)c3cc2CO1", "note": "(stereo not drawn)", "values": [{"measurement": "growth inhibition", "setting": "[6]", "result": "inconclusive: 37.7%"}, {"measurement": "viability", "setting": "[3]", "result": "inconclusive: 90.9%"}]}
{"smiles": "O=C(Nc1nc(-c2ccccn2)cs1)C1COc2ccccc2O1", "note": "(stereo not drawn)", "values": [{"measurement": "growth inhibition", "setting": "[6]", "result": "active: 96.9%"}, {"measurement": "viability", "setting": "[4]", "result": "active: 10.3%"}, {"measurement": "viability", "setting": "[3]", "result": "active: 11.5%"}]}
